The values below come from PubChem BioAssay AID256 (DTP/NCI, 2004).

The experiment relates to CD2F1 mice, L1210 leukemia ip, survival T/C. Kind of experiment: NCI In Vivo Anticancer Drug Screen. Data for tumor model L1210 Leukemia (intraperitoneal) in CD2F1 (CDF1) mice. The settings on record: higher T/C = longer survival. In a few lines: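 Ratio T/C, where T is the treated-group value and C the vehicle-dosed control value, from mice implanted with a transplantable tumor.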

[1] abbreviates: T/C endpoint: median survival time, dose: 166.7 mg/kg/injection, schedule: Q01DX009 (ip), vehicle: water.
[2] abbreviates: T/C endpoint: mean survival time, dose: 400.0 mg/kg/injection, schedule: Q04DX003 (ip), vehicle: saline with Tween-80.

The list shows only some results of the screen, not a fair sample: it is rich in T/C values a quarter to a half above the control, in often repeated tests (any T/C) and in doses without a T/C. Further doses and runs are listed elsewhere. T/C is the treated group as % of the vehicle group. Some doses have a count of surviving animals in place of a T/C: the source holds a T/C of zero for them, seemingly a mark for toxic or unscored doses. Some survivor counts are full or nearly so, which does not show that the dose was tolerated: survival well below the control is almost never listed, so the zero probably covers shortened survival too. Survivors were counted at the toxicity check, usually on the fifth day, unless a day is given; later deaths do not show. Schedule codes are those of the source, taken here to give the interval after Q, in days (D) or hours (H), and the number of doses after X. Some molecules as drawn cover several salts, stereoisomers or complexes of the source; a dose is that of the sample tested. Some entries were tested several times; their values stand side by side, smallest first. Where survival is the endpoint, this PubChem deposit counts one and a half times the control or more as active, and values a quarter to a half above the control carry no call in these data; other NCI protocols may use other cut-offs. Some T/C values carry the count of animals alive at the toxicity check (mostly the fifth day); without a count, all were alive then.

As for `Nc1nc(N)c2nc(CN(CCO)c3ccc(C(=O)NC(CCC(=O)O)C(=O)O)cc3)cnc2n1` (centres undefined), for the setting “T/C endpoint: mean survival time, dose: 1.0 mg/kg/injection, schedule: Q01DX009 (ip), vehicle: Klucel (hydroxypropylcellulose) (HPC)”, the T/C was 144 % of control.

Turning to `COc1cc(Cl)ccc1NC(=O)N1CCN(c2ccccc2)CC1`, for the setting “T/C endpoint: mean survival time, dose: 100.0 mg/kg/injection, schedule: Q01DX009 (ip), vehicle: saline with Tween-80”, the survivor count is listed as 3 of 3.

Take `NC1CCCCC1N.O=S(=O)([O-])c1ccccc1S(=O)(=O)[O-].[Pt+4]`: the survivor count is given as 6 of 6 (T/C endpoint: median survival time, dose: 50.0 mg/kg/injection, schedule: Q04DX003 (ip), vehicle: saline); 6 of 6 (T/C endpoint: median survival time, dose: 100.0 mg/kg/injection, schedule: Q04DX003 (ip), vehicle: saline); 5 of 6 (T/C endpoint: median survival time, dose: 200.0 mg/kg/injection, schedule: Q04DX003 (ip), vehicle: saline).

Take `CN1CCN(CN2C(=O)C3C4C=CC(C3C2=O)C2C3C(=O)N(CN5CCN(C)CC5)C(=O)C3C42)CC1` (centres undefined): the T/C (T/C endpoint: median survival time, dose: 13.8 mg/kg/injection, schedule: Q03HX027 (ip), vehicle: water) was 126 % of control; the T/C (T/C endpoint: median survival time, dose: 20.0 mg/kg/injection, schedule: Q03HX027 (ip), vehicle: water) was 132 % of control; the T/C (T/C endpoint: median survival time, dose: 21.6 mg/kg/injection, schedule: Q01DX009 (ip), vehicle: water) is reported as 103, 104, 109, 116 % of control; the T/C (T/C endpoint: median survival time, dose: 23.0 mg/kg/injection, schedule: Q03HX027 (ip), vehicle: water) is 141 % of control; the T/C (T/C endpoint: median survival time, dose: 36.0 mg/kg/injection, schedule: Q01DX009 (ip), vehicle: water) is 105, 109, 112, 136 % of control; the T/C (T/C endpoint: median survival time, dose: 41.3 mg/kg/injection, schedule: Q01DX009 (ip), vehicle: water) was 134 and 147 % of control. For the same molecule, the T/C runs as follows: (T/C endpoint: median survival time, dose: 60.0 mg/kg/injection, schedule: Q01DX009 (ip), vehicle: water) 137, 146, 175, 273 % of control; (T/C endpoint: median survival time, dose: 100.0 mg/kg/injection, schedule: Q01DX009 (ip), vehicle: water) 92 [5 of 6 alive], 137, 195, 241 % of control; under setting [1], 256 % of control. The survivor count is, setting by setting: (T/C endpoint: median survival time, dose: 63.9 mg/kg/injection, schedule: Q03HX027 (ip), vehicle: water) 5 of 6; (T/C endpoint: median survival time, dose: 92.9 mg/kg/injection, schedule: Q03HX027 (ip), vehicle: water) 2 of 6; (T/C endpoint: median survival time, dose: 106.6 mg/kg/injection, schedule: Q03HX027 (ip), vehicle: water) 0 of 6; (T/C endpoint: median survival time, dose: 124.0 mg/kg/injection, schedule: Q01DX009 (ip), vehicle: water) 5 of 6; under setting [1], 0 of 6 and 4 of 6; (T/C endpoint: median survival time, dose: 191.2 mg/kg/injection, schedule: Q01DX009 (ip), vehicle: water) 0 of 6 and 1 of 6. For the same molecule, the survivor count (T/C endpoint: median survival time, dose: 268.7 mg/kg/injection, schedule: Q01DX009 (ip), vehicle: water) is listed as 0 of 6 and the survivor count (T/C endpoint: median survival time, dose: 277.8 mg/kg/injection, schedule: Q01DX009 (ip), vehicle: water) was 0 of 6.

Turning to `O=C(O)c1nc2ccccc2c(=O)[nH]1`, for the setting “T/C endpoint: mean survival time, dose: 400.0 mg/kg/injection, schedule: Q01DX001 (ip), vehicle: saline with Tween-80”, the survivor count was 2 of 6.

`Cc1ccc(-c2nc(SCc3ccc(Cl)cc3)[nH]c(=O)c2CCO)cc1`: where the note is “T/C endpoint: mean survival time, dose: 400.0 mg/kg/injection, schedule: Q04DX003 (ip), vehicle: Klucel (hydroxypropylcellulose) (HPC)”, the survivor count is recorded as 6 of 6.

As to `Cn1ncc2c1C(=O)c1nc(-c3ccccc3)c(-c3ccccc3)nc1C2=O`, the survivor count (T/C endpoint: mean survival time, dose: 200.0 mg/kg/injection, schedule: Q04DX003 (ip), vehicle: saline) is given as 6 of 6.

Consider `CC1c2ccccc2CC(CCN(C)C)c2ccccc21` (centres undefined), for which the survivor count (T/C endpoint: median survival time, dose: 100.0 mg/kg/injection, schedule: Q01DX009 (ip), vehicle: saline with Tween-80) is on record as 0 of 6.

As for `CCc1c(Cl)c(C)c(Cl)c(O)c1Cl`, the survivor count under setting [2] is reported as 0 of 3.

Consider `CN(C)CCNC(=O)c1ccc(N)cc1`, for which the survivor count (T/C endpoint: mean survival time, dose: 400.0 mg/kg/injection, schedule: Q04DX002 (ip), vehicle: saline) is 3 of 3.

For the molecule `CSc1ncc(Br)c(Sc2nc(N)nc3nc[nH]c23)n1`, the T/C by setting is: (T/C endpoint: mean survival time, dose: 6.7 mg/kg/injection, schedule: Q01DX001 (ip), vehicle: saline with Tween-80) 141 % of control; (T/C endpoint: mean survival time, dose: 10.0 mg/kg/injection, schedule: Q01DX001 (ip), vehicle: saline with Tween-80) 148 % of control.

As to `O=C(Nc1ccccc1C(=O)O)c1cc([N+](=O)[O-])cc([N+](=O)[O-])c1`, the survivor count runs as follows: (T/C endpoint: mean survival time, dose: 200.0 mg/kg/injection, schedule: Q01DX009 (ip), vehicle: saline with Tween-80) 3 of 6; (T/C endpoint: mean survival time, dose: 400.0 mg/kg/injection, schedule: Q01DX009 (ip), vehicle: saline with Tween-80) 0 of 6 and 5 of 10.

`CN(Cc1ccccc1)/N=N/c1nc[nH]c1C(N)=O`: the T/C reads like this: (T/C endpoint: mean survival time, dose: 64.5 mg/kg/injection, schedule: Q01DX009 (ip), vehicle: Klucel (hydroxypropylcellulose) (HPC)) 136 % of control; (T/C endpoint: median survival time, dose: 32.0 mg/kg/injection, schedule: Q03HX024 (ip), vehicle: saline with Tween-80) 148 % of control; (T/C endpoint: median survival time, dose: 64.0 mg/kg/injection, schedule: Q01DX009 (ip), vehicle: saline with Tween-80) 132 % of control; (T/C endpoint: median survival time, dose: 64.0 mg/kg/injection, schedule: Q03HX016 (ip), vehicle: saline with Tween-80) 142 % of control; (T/C endpoint: median survival time, dose: 64.0 mg/kg/injection, schedule: Q03HX024 (ip), vehicle: saline with Tween-80) 129 % of control; (T/C endpoint: median survival time, dose: 128.0 mg/kg/injection, schedule: Q01DX009 (ip), vehicle: saline with Tween-80) 129 % of control. For the same molecule, the T/C is, setting by setting: (T/C endpoint: median survival time, dose: 256.0 mg/kg/injection, schedule: Q04DX003 (ip), vehicle: saline with Tween-80) 131 % of control; (T/C endpoint: median survival time, dose: 512.0 mg/kg/injection, schedule: Q04DX003 (ip), vehicle: saline with Tween-80) 125 % of control. Moreover, under “T/C endpoint: median survival time, dose: 512.0 mg/kg/injection, schedule: Q01DX009 (ip), vehicle: saline with Tween-80”, the survivor count is reported as 8 of 10.

Take `N#CC1(O)CCCCC1`: for the setting “T/C endpoint: mean survival time, dose: 20.0 mg/kg/injection, schedule: Q04DX003 (ip), vehicle: saline with Tween-80”, the survivor count is reported as 0 of 6.

In the case of `Nc1ccc(CCCCc2ccc(Cl)cc2Cl)cc1`, the survivor count under setting [2] was 1 of 6.

On to `COc1ccc(N=C2C=CC(=O)O2)cc1`, for which the survivor count by setting is: (T/C endpoint: mean survival time, dose: 200.0 mg/kg/injection, schedule: Q04DX003 (ip), vehicle: saline with Tween-80) 1 of 6; under setting [2], 3 of 6.

`Nc1ncnc2c1ncn2C1OC(CO)C2[O][Sn]([c]3ccccc3)([c]3ccccc3)[O]C21` (centres undefined): the survivor count by setting is: (T/C endpoint: mean survival time, dose: 25.0 mg/kg/injection, schedule: Q01DX005 (ip), vehicle: other) 0 of 6; (T/C endpoint: mean survival time, dose: 50.0 mg/kg/injection, schedule: Q01DX005 (ip), vehicle: other) 0 of 6; (T/C endpoint: mean survival time, dose: 100.0 mg/kg/injection, schedule: Q01DX005 (ip), vehicle: other) 0 of 6; (T/C endpoint: mean survival time, dose: 200.0 mg/kg/injection, schedule: Q01DX005 (ip), vehicle: other) 0 of 6.
